Data on 42 sequences can be found in PMC7819943, “Rice protein-binding microarrays: a tool to detect cis-acting elements near promoter regions in rice”.

Amino acid sequences for entries named in this document (tags omitted).
UniProt Q0JBA9, entry or part of it: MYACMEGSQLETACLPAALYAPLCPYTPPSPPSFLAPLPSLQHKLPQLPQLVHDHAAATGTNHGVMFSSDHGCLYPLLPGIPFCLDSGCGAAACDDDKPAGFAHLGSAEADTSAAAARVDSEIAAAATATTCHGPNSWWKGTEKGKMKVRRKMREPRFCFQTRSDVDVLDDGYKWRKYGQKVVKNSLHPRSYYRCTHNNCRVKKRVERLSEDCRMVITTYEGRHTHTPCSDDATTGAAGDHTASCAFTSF

Some of the results follow.

The target of the assay is OsWRKY34 (Oryza sativa, UniProt Q0JBA9 1-250). In words: protein-binding microarray (RPBM); PBS, 2% BSA, 51.3 ng/ul salmon testes DNA, 50 uM zinc acetate, 200 nM TF, 25 C, 1 h; high values mean tight binding. The conditions noted are these: protein: recombinant; tags: N-terminal polyhistidine and DsRed monomer fusion (pET32a); label: CyDye5-dUTP incorporated in the synthesized complementary strand; 3' TTTTT single-stranded linker to array surface; dsDNA, one strand shown. In outline: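 In PBS with 2% BSA, salmon testes DNA and 50 µM zinc acetate, 200 nM protein was incubated on a custom Agilent array at 25 °C for 1 h and then washed off. The array had been made double-stranded by primer extension with Cy5-dUTP and blocked with 2% BSA. The proteins were transcription factors fused N-terminally to polyhistidine and DsRed, expressed in E. coli BL21-CodonPlus and purified on Ni–NTA. The binding signal is per-feature fluorescence intensity (arbitrary units) from an Axon 4000B scanner.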
With “TTACCTCTGAAACTACTAGTAGAATTCTACCTTCTCTGAACGGAGTCACCTAGTGCAG”, the binding signal was 8420 fluorescence intensity (a.u.). The figure for “GCCAACTTTGTAATTACCCCGATTCAATTCATTCAATTCACGGAGTCACCTAGTGCAG” is 10700 fluorescence intensity (a.u.); for “ACTATTTCACGTCTTGTATTTTTCCTATCCTCGAATCAAACGGAGTCACCTAGTGCAG” it is 12500 fluorescence intensity (a.u.). In the case of “ACCTTCGGTGCACTTTTTCCTATTGCTAATTAGCCCGTTACGGAGTCACCTAGTGCAG” it was 9020 fluorescence intensity (a.u.); in that of “TGACACTGTCTCCAAAACACAACTTTGACTTCTTGTTTCTCGGAGTCACCTAGTGCAG”, 10400 fluorescence intensity (a.u.); in that of “CCCAGTACATAATACCTCCACGGTACTCGTACTCGTACTCCGGAGTCACCTAGTGCAG”, 9750 fluorescence intensity (a.u.). The figure for “CTCGCTAGCCCTCTGAACCTTGCAGTTTGTTGTTTGCACCCGGAGTCACCTAGTGCAG” is 13600 fluorescence intensity (a.u.); for “GGAATTGGCCACAAAAGCTACTGCTAACTACATTCACCTCCGGAGTCACCTAGTGCAG” it is 9760 fluorescence intensity (a.u.). Take “ACTTTGCCAATTTGCCAGCTACCGGTCACCTTTGTCTTCTCGGAGTCACCTAGTGCAG”: the binding signal was 12000 fluorescence intensity (a.u.). With “CATTCGGCGGGGCGGAGGTGGGGCGCGCTCGCCGGAGATGCGGAGTCACCTAGTGCAG”, the binding signal was 8310 fluorescence intensity (a.u.).

With “GAGATCTGCTGCATCGGTGGTAGCAGTGCCACCTTTTTCTCGGAGTCACCTAGTGCAG”, the binding signal was 9640 fluorescence intensity (a.u.).

As to “CTTTCATCCCCGCCGCCGGTCGCCGCTTGTGCTGCCGCTCCGGAGTCACCTAGTGCAG”, the binding signal was 9830 fluorescence intensity (a.u.). In the case of “CAAGTGGTTAGGAGGGGTGTACTGAACTGAGAACTGTCCCCGGAGTCACCTAGTGCAG” it was 8040 fluorescence intensity (a.u.); in that of “GTATCACCTCTCATGCATTTTTCTGGACATATTACAATATCGGAGTCACCTAGTGCAG”, 10500 fluorescence intensity (a.u.); in that of “TCCGTCGCTGTTTCTGTTTGGGTTTAACCGTTTGGTAGCTCGGAGTCACCTAGTGCAG”, 9660 fluorescence intensity (a.u.). In the case of “GCCTTCGTCGCCGCTCCAACTTCTTCGACATTAACTACAACGGAGTCACCTAGTGCAG” it was 13100 fluorescence intensity (a.u.).

For “ACCAAGCTGCAGATTCTCAACCTCGCCTACAACCAGCTGTCGGAGTCACCTAGTGCAG”, the binding signal is 8360 fluorescence intensity (a.u.). For the sequence “CCTCGAAAGCGGTAGGGTCAATATATTTTCATCGGTACAACGGAGTCACCTAGTGCAG”, the binding signal was 8910 fluorescence intensity (a.u.).

Regarding “TGTCTCCAATTTTGTGGCGGCTACGATACACCGCTTGTTTCGGAGTCACCTAGTGCAG”, the binding signal is 9530 fluorescence intensity (a.u.). In the case of “GTCAACCAAATCTACCGGCTGATCAGTGATCACACGCTTTCGGAGTCACCTAGTGCAG” it was 8460 fluorescence intensity (a.u.); in that of “GGTACTACTATATCTTCTGTCGCTTTCTCGAATAGGAAATCGGAGTCACCTAGTGCAG”, 9520 fluorescence intensity (a.u.). In the case of “TGCACTTCCATTTCACCTCACCTCCTCTCCATCTCTCCATCGGAGTCACCTAGTGCAG” it was 9120 fluorescence intensity (a.u.); in that of “ATTAGGTTTGATACCTGACCTGTATGATGCGTTTCTACCACGGAGTCACCTAGTGCAG”, 10500 fluorescence intensity (a.u.); in that of “TTTTATTCTACTTATTACTCCATATACTAGCTAGCATCATCGGAGTCACCTAGTGCAG”, 8080 fluorescence intensity (a.u.).

With “AGTTTGTAATCAAATCAATTGTTCCATTTAGTCTTTGATTCGGAGTCACCTAGTGCAG”, the binding signal is 8590 fluorescence intensity (a.u.). In the case of “GGATTTGTCTTTTTTATTTCTTAATATGTAGCTTATGTTTCGGAGTCACCTAGTGCAG” it was 10700 fluorescence intensity (a.u.). In the case of “TTTGCCGTTTCTCTTTGACCAAGGTCAACCGAACTGCGGTCGGAGTCACCTAGTGCAG” it was 11000 fluorescence intensity (a.u.); in that of “CACTGTTCGTGCACACTGGCCGTCTTCTTCTTCCTCCAGCCGGAGTCACCTAGTGCAG”, 8230 fluorescence intensity (a.u.); in that of “TAACATGTAGGGTCCACCTCGGCTCCACCATTTCTAATAACGGAGTCACCTAGTGCAG”, 9290 fluorescence intensity (a.u.). Consider “GAGAGTATTTGGAACACGTCATCACTTCGTCCCTTATTATCGGAGTCACCTAGTGCAG”, for which the binding signal was 10000 fluorescence intensity (a.u.). For the sequence “ATCCGGCACAGATATCCCCTTTGATGTAGAAATCCTCTTCCGGAGTCACCTAGTGCAG”, the binding signal was 8880 fluorescence intensity (a.u.). For “CACCTAAGGAATGTACTCCGTACTTATCACTAGACCACTTCGGAGTCACCTAGTGCAG”, the binding signal was 9190 fluorescence intensity (a.u.).

Take “TTCTATGGTTGGTTCTTGTGTGTCCCTAAGCGTGAAAAAACGGAGTCACCTAGTGCAG”: the binding signal is 10200 fluorescence intensity (a.u.). Consider “TCCCTGTTTTTTTGCTGATTTATTTTTTATAGGTTCAATTCGGAGTCACCTAGTGCAG”, for which the binding signal is 8420 fluorescence intensity (a.u.). Regarding “TGGGGTGGAGGCAGGGTTCCTCTTGACGAACTGGCCAGCACGGAGTCACCTAGTGCAG”, the binding signal was 8580 fluorescence intensity (a.u.). For the sequence “GGGGCTTCATGACTAGTCTAACCAATTGCAGCAATATGATCGGAGTCACCTAGTGCAG”, the binding signal was 8630 fluorescence intensity (a.u.).

Take “AGTCTATCTCTCTCATCCGATTCGTGTATTTTTTCTGCGCCGGAGTCACCTAGTGCAG”: the binding signal was 12200 fluorescence intensity (a.u.). In the case of “ACCCAATGGCAATCTTGCAAGAACTAACCTTTGCCACCACCGGAGTCACCTAGTGCAG” it was 8200 fluorescence intensity (a.u.); in that of “TATACTACTAGCAGCAGCGTCTTCCTCCTCGTCGTCTTCACGGAGTCACCTAGTGCAG”, 8600 fluorescence intensity (a.u.); in that of “CTGTTGCACGTGCTTTGTTCACCGAAGGTTCCAGCTACTCCGGAGTCACCTAGTGCAG”, 8990 fluorescence intensity (a.u.).

On to “GTGTCAAGGTCTACCGCTAGCGATTGTATTTATGGGAAGCCGGAGTCACCTAGTGCAG”, for which the binding signal was 8380 fluorescence intensity (a.u.).

Consider “TTTACTGACCTACAAAACCATATGGTTAAAACATCACTTCCGGAGTCACCTAGTGCAG”, for which the binding signal is 8880 fluorescence intensity (a.u.).
